Results: patent publication US7465735B2, “5-Phenypyrimidines their preparation compositions comprising them and their use” (BASF Aktiengesellschaft, priority 2001, dated 2008)
Some results were stated once for a whole list of compounds, not compound by compound. For at least one compound, name, drawing or mass did not settle the structure.

Columns and labels:
Type in all cases: in vivo
Sphaerotheca fuliginea = experiment: Protective activity against mildew of cucumber; conditions: 250 ppm active compound; potted cucumber seedlings "Chinese Snake"; inoculated 20 hours after spraying; assessed visually after 7 days; untreated plants 85% infected
Septoria tritici = experiment: Activity against Septoria leaf blotch of wheat (protective spray, greenhouse); conditions: 250 ppm active compound; potted wheat seedlings "Riband"; inoculated 24 hours after spraying; assessed visually after 2 weeks; untreated plants 90% infected
[1] = test system: Pyrenophora [syn. Drechslera] teres; experiment: Activity against net blotch of barley (protective spray, greenhouse); conditions: 250 ppm active compound; potted barley seedlings "Igri"; inoculated 24 hours after spraying; assessed visually after 6 days; untreated plants 100% infected

Row | Structure (SMILES) | infection of the cotyledon area (Sphaerotheca fuliginea) | infection of the total leaf area (Septoria tritici) | infection of the total leaf area [1]
1 | CC(C)Nc1nc(C#N)nc(Cl)c1-c1c(F)cccc1Cl [compound 249] | not more than 10% | – | –
2 | C[C@H](Nc1nc(N(C)N)nc(Cl)c1-c1c(F)cc(F)cc1F)C(F)(F)F [compound 271] | not more than 10% | at most 7% | not more than 15%
3 | CCCCOc1nc(Cl)c(-c2c(F)cc(F)cc2F)c(N[C@@H](C)C(F)(F)F)n1 [compound 19] | – | at most 7% | –
4 | CC(C)=NOc1nc(Cl)c(-c2c(F)cc(F)cc2F)c(N2CCC(C)CC2)n1 [compound 141] | not more than 10% | – | –
5 | CC1CCN(c2nc(C#N)nc(Cl)c2-c2c(F)cccc2Cl)CC1 [compound 206] | not more than 10% | – | –
6 | CCON=C(C)c1nc(Cl)c(-c2c(F)cc(F)cc2F)c(N2CCC(C)CC2)n1 [compound 163] | not more than 10% | – | not more than 15%
7 | COc1cc(F)c(-c2c(Cl)nc(ON=C(C)C)nc2N2CCC(C)CC2)c(F)c1 [compound 189] | not more than 10% | – | –
8 | CC(C)=NN(C)c1nc(Cl)c(-c2c(F)cc(F)cc2F)c(N[C@@H](C)C(F)(F)F)n1 [compound 60] | – | at most 7% | –
9 | C[C@H](Nc1nc(C#N)nc(Cl)c1-c1c(F)cc(F)cc1F)C(F)(F)F [compound 287] | not more than 10% | – | not more than 15%
10 | COc1nc(Cl)c(-c2c(F)cc(F)cc2F)c(NC(C)C)n1 [compound 224] | – | at most 7% | –
11 | CC1CCN(c2nc(C#N)nc(Cl)c2-c2c(F)cc(F)cc2F)CC1 [compound 160] | not more than 10% | at most 7% | not more than 15%
12 | CC(=NN(C)c1nc(Cl)c(-c2c(F)cc(F)cc2F)c(NC(C)C(F)(F)F)n1)C(F)(F)F (stereo not shown) [compound 264] | – | at most 7% | –
13 | CCOc1nc(Cl)c(-c2c(F)cc(F)cc2F)c(N[C@@H](C)C(F)(F)F)n1 [compound 276] | not more than 10% | – | not more than 15%
14 | CC(=NOC(C)C)c1nc(Cl)c(-c2c(F)cc(F)cc2F)c(N2CCC(C)CC2)n1 [compound 165] | – | – | not more than 15%
15 | CCCCOc1nc(Cl)c(-c2c(F)cc(F)cc2F)c(N[C@@H](C)C(F)(F)F)n1 [compound 278] | – | – | not more than 15%
16 | CSc1nc(Cl)c(-c2c(F)cc(F)cc2F)c(NC(C)C)n1 [compound 228] | – | at most 7% | –
17 | COCCON=C(C)c1nc(Cl)c(-c2c(F)cc(F)cc2F)c(N2CCC(C)CC2)n1 [compound 171] | not more than 10% | – | not more than 15%
18 | C[C@H](Nc1nc(NNCC(F)(F)F)nc(Cl)c1-c1c(F)cc(F)cc1F)C(F)(F)F [compound 272] | – | at most 7% | –
19 | C[C@H](Nc1nc(N=[N+]=[N-])nc(Cl)c1-c1c(F)cc(F)cc1F)C(F)(F)F [compound 273] | not more than 10% | – | –
20 | CC(=NOCC=CCl)c1nc(Cl)c(-c2c(F)cc(F)cc2F)c(N2CCC(C)CC2)n1 [compound 168] | not more than 10% | – | not more than 15%
21 | CCOc1nc(Cl)c(-c2c(F)cc(F)cc2F)c(NC(C)C)n1 [compound 223] | – | at most 7% | –

Row | Structure (SMILES) | infection of the cotyledon area (Sphaerotheca fuliginea) | infection of the total leaf area (Septoria tritici) | infection of the total leaf area [1]
22 | CC1CCCN(c2nc(C#N)nc(Cl)c2-c2c(F)cc(F)cc2F)C1 (stereo not shown) [compound 121] | not more than 10% | – | –
23 | C[C@H](Nc1nc(ON=C2CCCC2)nc(Cl)c1-c1c(F)cc(F)cc1F)C(F)(F)F [compound 255] | – | – | not more than 15%
24 | CC(=NN(C)c1nc(Cl)c(-c2c(F)cc(F)cc2F)c(N[C@@H](C)C(F)(F)F)n1)c1ccccc1 [compound 265] | not more than 10% | at most 7% | not more than 15%
25 | CC(C)Oc1nc(Cl)c(-c2c(F)cc(F)cc2F)c(N[C@@H](C)C(F)(F)F)n1 [compound 277] | – | – | not more than 15%
26 | C[C@H](Nc1nc(NNc2ccccc2)nc(Cl)c1-c1c(F)cc(F)cc1F)C(F)(F)F [compound 269] | – | at most 7% | –
27 | CCC(C)Nc1nc(C#N)nc(Cl)c1-c1c(F)cc(F)cc1F (stereo not shown) [compound 86] | not more than 10% | at most 7% | –
28 | CC(C)=NOc1nc(Cl)c(-c2c(F)cc(F)cc2F)c(N[C@@H](C)C(F)(F)F)n1 [compound 254] | – | at most 7% | not more than 15%
29 | COc1nc(Cl)c(-c2c(F)cc(F)cc2F)c(N[C@@H](C)C(F)(F)F)n1 [compound 275] | not more than 10% | – | –
30 | CCSc1nc(Cl)c(-c2c(F)cccc2Cl)c(NC(C)C)n1 [compound 248] | – | at most 7% | –
31 | CC(=NN(C)c1nc(Cl)c(-c2c(F)cc(F)cc2F)c(N[C@@H](C)C(F)(F)F)n1)C(F)(F)F [compound 54] | – | at most 7% | –
32 | CON=C(N)c1nc(Cl)c(-c2c(F)cc(F)cc2F)c(N2CCC(C)CC2)n1 [compound 186] | not more than 10% | – | not more than 15%
33 | CC(Nc1nc(N(C)C)nc(Cl)c1-c1c(F)cc(F)cc1F)C(F)(F)F (racemic) [compound 299] | not more than 10% | – | –
34 | CC(C)Nc1nc(OC(C)(C)C)nc(Cl)c1-c1c(F)cccc1Cl [compound 21] | – | at most 7% | –
35 | CCSc1nc(Cl)c(-c2c(F)cc(F)cc2F)c(NC(C)C)n1 [compound 226] | – | at most 7% | –
36 | CC(C)=NN(C)c1nc(Cl)c(-c2c(F)cc(F)cc2F)c(N[C@@H](C)C(F)(F)F)n1 [compound 267] | – | – | not more than 15%
37 | CC(=NNc1nc(Cl)c(-c2c(F)cc(F)cc2F)c(NC(C)C)n1)c1ccccc1 [compound 220] | not more than 10% | – | –
38 | CC1CCN(c2nc(C(N)=NO)nc(Cl)c2-c2c(F)cc(F)cc2F)CC1 [compound 185] | not more than 10% | – | not more than 15%
39 | C[C@H](Nc1nc(N(C)N=Cc2ccccc2)nc(Cl)c1-c1c(F)cc(F)cc1F)C(F)(F)F [compound 266] | not more than 10% | – | –
40 | CC(C)=NOc1nc(Cl)c(-c2c(F)cc(F)cc2F)c(N2CCCC2C)n1 (stereo not shown) [compound 88] | not more than 10% | – | not more than 15%
41 | CC(C)Nc1nc(OC(C)C)nc(Cl)c1-c1c(F)cccc1Cl [compound 18] | – | at most 7% | –
42 | C[C@H](Nc1nc(O)nc(Cl)c1-c1c(F)cc(F)cc1F)C(F)(F)F [compound 274] | – | – | not more than 15%
